Laboratory results reported in PMC12714725.
These are yes or no findings as the source states them, for the method shown. Binding seen in cells or lysates may run through a third protein. Here binding means that the protein was enriched with, or labelled near, the bait; the list need not be complete.

The chains behind the UniProt entries cited, without tags or fusion partners.
UniProt P48727: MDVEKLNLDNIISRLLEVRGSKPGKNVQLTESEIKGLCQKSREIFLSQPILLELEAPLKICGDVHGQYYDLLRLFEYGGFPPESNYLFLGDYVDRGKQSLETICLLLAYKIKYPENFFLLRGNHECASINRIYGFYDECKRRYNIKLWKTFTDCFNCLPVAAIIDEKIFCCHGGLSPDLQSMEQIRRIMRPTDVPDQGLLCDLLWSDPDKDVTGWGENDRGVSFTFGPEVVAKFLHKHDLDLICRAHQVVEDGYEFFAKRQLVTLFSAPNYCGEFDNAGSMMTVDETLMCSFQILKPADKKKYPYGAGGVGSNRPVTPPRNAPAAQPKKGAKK

B1: SDS-22 (protein, UniProt P45969 1-326)
chain: MSNDKSAEVVVLPRENDEESKEPVLKNQFDLSTFDIDSPEIDLTHTRADHIPDLTGFPKIEELRMRNNLLVSISPTISSLVTLTSLDLYENQLTEISHLESLVNLVSLDLSYNRIRQINGLDKLTKLETLYLVSNKIEKIENLEALTQLKLLELGDNRIKKIENIGHLVNLDELFIGKNKIRQLEGVETLQKLSVLSLPGNRIVKIENVEQLNNLKELYLSDQGLQDIHGVEPLTNLLLLDVANNEIKTFSGVERLESLNDFWANDNKVESFSEIEQLSKLKGLQTVYLERNPFYFNDTNQYRRKVMMTLTQVTQIDATTCRKPIE
B2: APE-1 (protein, UniProt Q9XVN3 1-769)
chain: MVTTSSGGGIGYPANNGVTQVSLIHSSDSVRTVSTAPIYRPTSSMASTMAHKSSTAPFISANQRMSKPPVRVVAQPPPPHPQALSQQYHQQNPMMMYSAPNTRPHVIPTMQVQPTMAAQIKRNNPVNAQFQNPSEMIADYGVKPQSVEMVQRVRAVRRQVADEETELRRLRELEHETAQLQNKNYGRERELNVQGSMLKEAQLELRNASMRAQSLNKHLEEMYRRRQTAAAAALVEQRKMQQHQILLARAANQVSTQEVIRPRASVEPFQVNNTQQQQPSPQMMKSEEFSEKRDLNGQTGSYDAIDGSGDHQKIPTEPSYLAPCKENQQKYSELSKMASTDPHSNHSSPSTSSQKAPTLITFSPPSFEQKINSSTMTRDSPFVERPTSFGDSLDESRLRSGKTDLVSLRSDSLKATKRRSWAASEGTSMSEAEMIHRLLDEQRRGRSHFIPQLPTSQEEPSAITSETYAEEVVNSESKQVATSSDSTNNLELPTEQMVLGSDTTTEEDASSCSTRSDDGQNLEMEVAIERRTVKGILRRPNEKMNKGRIEFDPLALLLDAALEGELDLVRSSASKLTDVSQANDEGITALHNAICAGHYEIVRFLIENDADVNAQDSDGWTPLHCAASCNNLPMVRQLVEGGGCVLASTLSDMETPVEKCEEDEDGYDGCLKYLSAAHNSTGSINTGKVYAAYGYEAAFEDELSFDAGDELTVIEKDKVDKNWWTCEKNNGEKGQVPRTYLALYPSLKYRKKLNFVMFDLPLESNNNVE

Target: mNeonGreen tagged GSP-2 (C. elegans) (UniProt P48727)
Assay: affinity purification with mass spectrometry; mNeonGreen::GSP-2 precipitated from about 3 mg embryonic extract with mNeonGreen-Trap Agarose beads, 4 °C, 1.5 h; IP buffer 100 mM KCl, 50 mM Tris pH 7.5, 1 mM MgCl2, 1 mM DTT, 5% glycerol, 0.2% NP-40, 1 mM EDTA; N2 strain as control; triplicate; DIA mass spectrometry

Row | Binder | binding
1 | B1 | binds
2 | B2 | binds
